Source: article doi:10.1101/2021.03.29.437469
Results are given in words; binding and its absence hold for the method and conditions named. In cells and extracts the contact can be indirect. A yes stands for co-enrichment or nearness to the bait. Other partners may have been found. Where a sequence is shown, tags or fusion partners need not be part of it.

T1: C-terminally TAP-tagged Tif4631p (S. cerevisiae) (UniProt P39935)
T1 sequence: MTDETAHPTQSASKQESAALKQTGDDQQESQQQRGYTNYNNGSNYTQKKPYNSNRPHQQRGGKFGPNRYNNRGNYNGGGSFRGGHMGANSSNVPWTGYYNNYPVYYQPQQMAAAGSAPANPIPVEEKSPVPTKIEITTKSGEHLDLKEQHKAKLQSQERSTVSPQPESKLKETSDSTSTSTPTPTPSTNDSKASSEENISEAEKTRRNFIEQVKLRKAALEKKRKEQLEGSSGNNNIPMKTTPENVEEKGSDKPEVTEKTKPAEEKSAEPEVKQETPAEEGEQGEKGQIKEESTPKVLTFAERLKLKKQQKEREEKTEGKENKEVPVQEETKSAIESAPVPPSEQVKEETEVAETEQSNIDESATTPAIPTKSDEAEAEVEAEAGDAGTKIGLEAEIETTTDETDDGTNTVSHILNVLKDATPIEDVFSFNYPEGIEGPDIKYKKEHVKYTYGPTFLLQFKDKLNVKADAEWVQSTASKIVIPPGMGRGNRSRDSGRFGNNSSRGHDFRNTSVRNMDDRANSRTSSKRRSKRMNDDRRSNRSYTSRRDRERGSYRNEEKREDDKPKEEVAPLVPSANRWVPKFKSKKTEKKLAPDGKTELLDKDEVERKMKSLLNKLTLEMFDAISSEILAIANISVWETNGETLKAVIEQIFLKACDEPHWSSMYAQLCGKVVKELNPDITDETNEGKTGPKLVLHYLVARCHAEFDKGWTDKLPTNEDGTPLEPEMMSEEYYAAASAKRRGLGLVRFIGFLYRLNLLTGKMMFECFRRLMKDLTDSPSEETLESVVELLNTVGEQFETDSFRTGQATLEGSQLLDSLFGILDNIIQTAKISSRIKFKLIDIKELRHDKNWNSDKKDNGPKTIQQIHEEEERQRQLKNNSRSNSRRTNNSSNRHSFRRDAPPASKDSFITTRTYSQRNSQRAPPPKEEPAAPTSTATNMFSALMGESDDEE


Molecular target: T1, C-terminally TAP-tagged Tif4631p (S. cerevisiae)
Assay: affinity purification with mass spectrometry

Row | binding | Molecule
1 | binds | Nmd2p (protein, UniProt P38798 1-1089) MDDGRKKELHDLNTRAWNGEEVFPLKSKKLDSSIKRNTGFIKKLKKGFVKGSESSLLKDLSEASLEKYLSEIIVTVTECLLNVLNKNDDVIAAVEIISGLHQRFNGRFTSPLLGAFLQAFENPSVDIESERDELQRITRVKGNLRVFTELYLVGVFRTLDDIESKDAIPNFLQKKTGRKDPLLFSILREILNYKFKLGFTTTIATAFIKKFAPLFRDDDNSWDDLIYDSKLKGALQSLFKNFIDATFARATELHKKVNKLQREHQKCQIRTGKLRDEYVEEYDKLLPIFIRFKTSAITLGEFFKLEIPELEGASNDDLKETASPMITNQILPPNQRLWENEDTRKFYEILPDISKTVEESQSSKTEKDSNVNSKNINLFFTDLEMADCKDIIDDLSNRYWSSYLDNKATRNRILKFFMETQDWSKLPVYSRFIATNSKYMPEIVSEFINYLDNGFRSQLHSNKINVKNIIFFSEMIKFQLIPSFMIFHKIRTLIMYMQVPNNVEILTVLLEHSGKFLLNKPEYKELMEKMVQLIKDKKNDRQLNMNMKSALENIITLLYPPSVKSLNVTVKTITPEQQFYRILIRSELSSLDFKHIVKLVRKAHWDDVAIQKVLFSLFSKPHKISYQNIPLLTKVLGGLYSYRRDFVIRCIDQVLENIERGLEINDYGQNMHRISNVRYLTEIFNFEMIKSDVLLDTIYHIIRFGHINNQPNPFYLNYSDPPDNYFRIQLVTTILLNINRTPAAFTKKCKLLLRFFEYYTFIKEQPLPKETEFRVSSTFKKYENIFGNTKFERSENLVESASRLESLLKSLNAIKSKDDRVKGSSASIHNGKESAVPIESITEDDEDEDDENDDGVDLLGEDEDAEISTPNTESAPGKHQAKQDESEDEDDEDDDEDDDDDDDDDDDDGEEGDEDDDEDDDDEDDDDEEEEDSDSDLEYGGDLDADRDIEMKRMYEEYERKLKDEEERKAEEELERQFQKMMQESIDARKSEKVVASKIPVISKPVSVQKPLLLKKSEEPSSSKETYEELSKPKKIAFTFLTKSGKKTQSRILQLPTDVKFVSDVLEEEEKLKTERNKIKKIVLKRSFD
2 | binds | Ski2p (protein, UniProt P35207 1-1287) MSEGFSSSSIQELYQSLKEITNNADVELFEDRITKLDFESTDEPKHANDIIKDRFLRPSNALPWSLLDMVQDVPHTSSPEDCSGKLDYKELLKVPDPINRTSYQFKRTGLEGKISGYKEEVDLKEVANANASNSLSITRSINHNQNSVRGSTAQLPFTPGGIPMKSVKTDSEQNGSSTMANATKLLHKDGQGLFDIPEGMNRGIKPMDSPAENEDQNGQFKELKQLNEIDNELDIRIEANEAKLKEEEKSAKSISEEIMEEATEETTADNADDAEIDELLPIGIDFGRTKPVSKSVPVKKEWAHVVDLNHKIENFDELIPNPARSWPFELDTFQKEAVYHLEQGDSVFVAAHTSAGKTVVAEYAIAMAHRNMTKTIYTSPIKALSNQKFRDFKETFDDVNIGLITGDVQINPDANCLIMTTEILRSMLYRGADLIRDVEFVIFDEVHYVNDQDRGVVWEEVIIMLPQHVKFILLSATVPNTYEFANWIGRTKQKNIYVISTPKRPVPLEINIWAKKELIPVINQNSEFLEANFRKHKEILNGESAKGAPSKTDNGRGGSTARGGRGGSNTRDGRGGRGNSTRGGANRGGSRGAGAIGSNKRKFFTQDGPSKKTWPEIVNYLRKRELLPMVVFVFSKKRCEEYADWLEGINFCNNKEKSQIHMFIEKSITRLKKEDRDLPQILKTRSLLERGIAVHHGGLLPIVKELIEILFSKGFIKVLFATETFAMGLNLPTRTVIFSSIRKHDGNGLRELTPGEFTQMAGRAGRRGLDSTGTVIVMAYNSPLSIATFKEVTMGVPTRLQSQFRLTYNMILNLLRIEALRVEEMIKYSFSENAKETLQPEHEKQIKVLQEELQTIEYKSCEICDNDIEKFLELMLAYKEATVNLMQEMVKSPSILHILKEGRLVAFRDPNDCLKLGFVFKVSLKDAVCVIMTFTKPYKLPNGEPNHLIYFPKADGYRRRNFPKFQKTDFYMEEVPVTAIEVITKRKFAAPLGKVIKKDVAALNEFNAETNNILDGKTLKEAINIEKQGLKIHQILLDRTNIRDEIFKLKSIKCPNLSQHIVPKFKAHVIKKKIEELYHLMSDQNLSLLPDYEKRLAVLKDTEFIDQNHNVLLKGRVACEINSGYELVLTELILDNFLGSFEPEEIVALLSVFVYEGKTREEEPPIVTPRLAKGKQRIEEIYKKMLCVFNTHQIPLTQDEAEFLDRKRFAMMNVVYEWARGLSFKEIMEMSPEAEGTVVRVITWLDEICREVKTASIIIGNSTLHMKMSRAQELIKRDIVFAASLYL
3 | binds | Dcp2p (protein, UniProt P53550 1-970) MSLPLRHALENVTSVDRILEDLLVRFIINCPNEDLSSVERELFHFEEASWFYTDFIKLMNPTLPSLKIKSFAQLIIKLCPLVWKWDIRVDEALQQFSKYKKSIPVRGAAIFNENLSKILLVQGTESDSWSFPRGKISKDENDIDCCIREVKEEIGFDLTDYIDDNQFIERNIQGKNYKIFLISGVSEVFNFKPQVRNEIDKIEWFDFKKISKTMYKSNIKYYLINSMMRPLSMWLRHQRQIKNEDQLKSYAEEQLKLLLGITKEEQIDPGRELLNMLHTAVQANSNNNAVSNGQVPSSQELQHLKEQSGEHNQQKDQQSSFSSQQQPSIFPSLSEPFANNKNVIPPTMPMANVFMSNPQLFATMNGQPFAPFPFMLPLTNNSNSANPIPTPVPPNFNAPPNPMAFGVPNMHNLSGPAVSQPFSLPPAPLPRDSGYSSSSPGQLLDILNSKKPDSNVQSSKKPKLKILQRGTDLNSIKQNNNDETAHSNSQALLDLLKKPTSSQKIHASKPDTSFLPNDSVSGIQDAEYEDFESSSDEEVETARDERNSLNVDIGVNVMPSEKDSRRSQKEKPRNDASKTNLNASAESNSVEWGPGKSSPSTQSKQNSSVGMQNKYRQEIHIGDSDAYEVFESSSDEEDGKKLEELEQTQDNSKLISQDILKENNFQDGEVPHRDMPTESNKSINETVGLSSTTNTVKKVPKVKILKRGETFASLANDKKAFDSSSNVSSSKDLLQMLRNPISSTVSSNQQSPKSQHLSGDEEIMMMLKRNSVSKPQNSEENASTSSINDANASELLGMLKQKEKDITAPKQPYNVDSYSQKNSAKGLLNILKKNDSTGYPRTEGGPSSEMSTSMKRNDATNNQELDKNSTELLNYLKPKPLNDGYENISNKDSSHELLNILHGNKNSSAFNNNVYATDGYSLASDNNENSSNKLLNMLQNRSSAINEPNFDVRSNGTSGSNELLSILHRK

Molecular target: T1, C-terminally TAP-tagged Tif4631p (S. cerevisiae)
Assay: affinity purification with mass spectrometry
Remark: another data set of the same source

Row | binding | Molecule
4 | binds | Tif2B (S. cerevisiae (endogenous in yeast))
5 | binds | Nrd1p (protein, UniProt P53617 1-575) MQQDDDFQNFVATLESFKDLKSGISGSRIKKLTTYALDHIDIESKIISLIIDYSRLCPDSHKLGSLYIIDSIGRAYLDETRSNSNSSSNKPGTCAHAINTLGEVIQELLSDAIAKSNQDHKEKIRMLLDIWDRSGLFQKSYLNAIRSKCFAMDISNNTANTASQQLSLDPKQRSKQILSNLKKSPPLNLNISLPTDLTSTDPAKQQAALFQVIAALQKHFKTLPSHTSVGTVAPPQAHTITEYGSRRERERERERYNSRRNRSRSPPAPFSQPSTGRKDRYPSVAQDQYSIGAPNTTFGTNNHHLYPDELNVSNNPHYRPKPVSYDSTLPPDHIKVYSRTLFIGGVPLNMKEWDLANVLKPFAEVQSVILNNSRKHAFVKVYSRHEAENVLQNFNKDGALPLRTRWGVGFGPRDCCDYQHGYSIIPMHRLTDADKKWSVSAQWGGTSGQPLVTGIVFEEPDIIVGEGVSSKAISQKMPTDSGRNGPRSGKPNKSGSISSISPVPYGNAPLASPPPQQYVQPMMQQPYGYAPNQPLPSQGPAAAAPPVPQQQFDPTAQLNSLMNMLNQQQQQQQQS
6 | binds | Rrp4p (protein, UniProt P38792 1-359) MSEVITITKRNGAFQNSSNLSYNNTGISDDENDEEDIYMHDVNSASKSESDSQIVTPGELVTDDPIWMRGHGTYFLDNMTYSSVAGTVSRVNRLLSVIPLKGRYAPETGDHVVGRIAEVGNKRWKVDIGGKQHAVLMLGSVNLPGGILRRKSESDELQMRSFLKEGDLLNAEVQSLFQDGSASLHTRSLKYGKLRNGMFCQVPSSLIVRAKNHTHNLPGNITVVLGVNGYIWLRKTSQMDLARDTPSANNSSSIKSTGPTGAVSLNPSITRLEEESSWQIYSDENDPSISNNIRQAICRYANVIKALAFCEIGITQQRIVSAYEASMVYSNVGELIEKNVMESIGSDILTAEKMRGNGN
